According to article PMC13068435:
These are yes or no findings as the source states them, for the method shown. Binding seen in cells or lysates may run through a third protein. Some results given as binding are weak or reduced against the parent protein; the word gives no strength.

The chains behind the UniProt entries cited, without tags or fusion partners. Residues count along the entry.
UniProt Q9ULT6, residues 56-936: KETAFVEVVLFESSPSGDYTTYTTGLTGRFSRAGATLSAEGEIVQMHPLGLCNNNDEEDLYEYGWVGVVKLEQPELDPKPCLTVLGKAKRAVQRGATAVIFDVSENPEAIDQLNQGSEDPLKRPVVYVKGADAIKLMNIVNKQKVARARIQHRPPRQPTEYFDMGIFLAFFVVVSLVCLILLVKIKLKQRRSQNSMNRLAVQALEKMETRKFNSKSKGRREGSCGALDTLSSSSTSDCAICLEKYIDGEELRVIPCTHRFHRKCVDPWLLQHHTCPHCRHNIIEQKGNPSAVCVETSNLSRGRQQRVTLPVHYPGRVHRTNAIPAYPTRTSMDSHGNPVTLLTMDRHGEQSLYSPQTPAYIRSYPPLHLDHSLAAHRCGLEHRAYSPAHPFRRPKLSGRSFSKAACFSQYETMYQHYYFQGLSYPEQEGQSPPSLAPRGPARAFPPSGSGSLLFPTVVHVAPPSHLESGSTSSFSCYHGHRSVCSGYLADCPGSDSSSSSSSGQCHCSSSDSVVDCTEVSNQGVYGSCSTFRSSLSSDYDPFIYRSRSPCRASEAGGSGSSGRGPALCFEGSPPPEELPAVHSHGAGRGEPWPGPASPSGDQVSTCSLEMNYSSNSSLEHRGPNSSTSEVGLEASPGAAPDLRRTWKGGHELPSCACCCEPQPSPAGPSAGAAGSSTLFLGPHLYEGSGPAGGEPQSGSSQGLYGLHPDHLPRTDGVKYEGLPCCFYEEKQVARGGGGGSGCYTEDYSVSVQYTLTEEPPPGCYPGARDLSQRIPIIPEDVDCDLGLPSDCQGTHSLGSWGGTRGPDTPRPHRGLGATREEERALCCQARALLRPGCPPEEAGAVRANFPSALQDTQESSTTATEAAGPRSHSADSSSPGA

Key:
[1] = molecular target: EGFR, ectopically expressed in MDA-MB-231 cells (UniProt P00533); assay: co-IP; lysates of MDA-MB-231 cells co-infected with lentivirus carrying EGFR and Myc-tagged ZNRF3 or RNF43; anti-EGFR IP, Protein G Sepharose, overnight at 4°C; NP-40 or RIPA lysis buffer
[2] = molecular target: EGFR, transfected in 293T cells (UniProt P00533); assay: co-IP; 293T cells co-transfected with EGFR and Myc-tagged ZNRF3 constructs; lysate amounts adjusted to comparable EGFR; EGFR IP followed by Myc-tag immunoblotting
[3] = molecular target: Myc-tagged ZNRF3 full-length (FL), expressed in 293T cells (UniProt Q9ULT6); assay: co-IP; 293T cells co-transfected with EGFR and Myc-tagged ZNRF3 constructs; lysate amounts adjusted to comparable EGFR; Myc-tag IP followed by EGFR immunoblotting

Myc-tagged ZNRF3, expressed in MDA-MB-231 cells (from UniProt Q9ULT6 56-936) (enzyme)
binding [1]: binds

Myc-tagged ZNRF3 full-length (FL), expressed in 293T cells (from UniProt Q9ULT6 56-936) (enzyme)
binding [2]: binds

EGFR, transfected in 293T cells (from UniProt P00533 25-1210) (receptor)
binding [3]: binds
